Consider 63 substances from the supplement of paper PMC5949888.

Most values lie at the floor of the assay. Slopes are relative: functional sequences can read slightly below zero.

This data set concerns Saccharomyces cerevisiae PS128 hsf1 delta, HSF1(1-493) fusion. Put plainly: growth estimate (transactivation domain function in HSF1 fusion, heat-shock survival) (a.u. (slope of normalised read count over time)); higher = stronger growth at 37°C, i.e. more transactivation activity. Conditions: library: random library.
As to TPASKSSTERTRTKSFQPNL, the growth estimate was below -0.25. For RWMD the value was below -0.25.

For LIFLGGQRA, the growth estimate is -0.232. As to LPVSGCVVMREAFWTIGSAL, the growth estimate is below -0.25. For DWGGIGVPSI the value was below -0.25.

Consider IPA, for which the growth estimate is below -0.25. Under RTELVSSQQFITLGHLAFLH stands below -0.25. Under VLLVSPAVSPLYPPVTAFMH stands below -0.25. For TVTPAS the value was below -0.25; for CKNCIHTSRASALW, below -0.25; for KITHLTP, -0.25. With IASENPGP, the growth estimate was below -0.25. For IQHIYHLHTLRTRLEMCLIG the value was below -0.25.

Take NGWVLMLTA: the growth estimate is below -0.25. Under THKMITDCCLMASFTTATNT stands below -0.25. Under YNGLIYKVAQRHFFRFVSVV stands below -0.25. Under NGKLRHMHFRFLG stands -0.246; under LGVDVIASDLAPVSAYELGC, below -0.25; under IATVPLRRTPECLFSDVTAL, below -0.25. YRWSSTYACRQYRISVQGRS: the growth estimate was below -0.25. For VVVFSRAS the value was below -0.25; for ACRGGQVLKEVLTDRNCVRL, below -0.25; for SCIRRASDNGERTDFGTCWT, below -0.25. For the substance LGHCTLVGCDFQANS, the growth estimate is below -0.25. Under SYWTIVLRQFVGTLPQQLLA stands below -0.25; under HISVLSPLGGGVACITTV, below -0.25; under YRWKYHWRLMQCNDRRTGGS, below -0.25. For ESVYLLAVSGFTDEEKSFIA the value was -0.243.

As to FQTQEREIPAVQLQLISQPH, the growth estimate was below -0.25. Under KTLNCRQRQPQSGNHETDL stands below -0.25. For VLPFGTASFVVTRN the value was below -0.25; for TQTILQRQ, below -0.25; for KLMWRTRKLCIGRT, below -0.25. Regarding RVMSPQQGAGINEVDLADRP, the growth estimate is below -0.25. Under CNWQDGVLGFNYSRQNYTHV stands below -0.25; under RHLRCVETGHRH, below -0.25. Under LKADGATLPVGLWRTYPIRT stands below -0.25. For SKCDSSIELMNRIESQGSGQ the value was below -0.25. As for LDHHSLERRITVAPAPPRPP, the growth estimate is below -0.25. Under YSERTVPLLRILHAHIASLP stands below -0.25.

Take VTKVDVGAETLVSLRPV: the growth estimate was below -0.25. For CVPSIFIGGTDLGVWHRVTK the value was below -0.25. Under TSLEGSTGGRVIIGTK stands below -0.25. Turning to SVDLRTILVKCANL, the growth estimate is below -0.25.

On to QDVHGRDWLLDQVAEQIKDG, for which the growth estimate was below -0.25. For EDAGRAWGFYS the value was below -0.25; for KWYVTSDSCGMSPPSFGIAP, below -0.25. Turning to ALGSDAHRGSCPIH, the growth estimate is below -0.25. For IVCL the value was below -0.25; for AESLISSWCSCAE, below -0.25.

Consider ALAVSGIVLAKLGVNAS, for which the growth estimate was below -0.25. Under VRLPNQFYGLTASDIGRFRR stands below -0.25; under GEHCGVMLFLA, below -0.25; under DMKANHPDRKVDGQSGTALR, below -0.25. Under DVCEFLT stands below -0.25; under VDAMSQLR, below -0.25. Under PSEPEETLAIDVISSCDALC stands below -0.25; under ICLRTGFARTGVV, below -0.25; under WAMQIRYAA, below -0.25.

Turning to LYTAQAVKVKTLGVLESY, the growth estimate is below -0.25. Under WNGQARPRLRL stands below -0.25; under FCSLAVA, below -0.25. As to ISHMRKTTTMYTYISSSM, the growth estimate was below -0.25.
